# Square brackets hold non-standard residues; d marks the D form. Ends that are not written are not given here. pS = N[C@@H](COP(=O)(O)O)C(=O)O
# Experiment: CPP and synthetic peptide binding to HA at 37° C.
# Excerpt: Similarly, we investigated the adsorption of the CPP and synthetic homologues and analogues onto HA (Table 2).
row,Substance,Molecular Area [nm^2]
1,DΣΣEE,2.04
2,θθTEE,3.61
3,EΣΣEE,1.74
4,AcGlu-Ser(P)-Ile-Ser(P)-Ser(P)-Ser(P)-Glu-GluNHMe [αs1(63-70)],3.56
5,[pS][pS][pS]EE [ΣΣΣEE],3.27
6,θTθEE,3.77
7,"QMEAEΣIΣΣΣEEIVPNΣVEQK [αs1(59-79), tryptic casein phosphopeptide]",4.75
8,TθθEE,3.03

# Reference: US7312193B2, “Calcium phosphopeptide complexes” (The University of Melbourne, priority 1997, dated 2007)
